# Experimental data: the supplement of paper PMC12889115
# Some of the results follow. These are raw signals, not scaled to a control.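 Primary screen: polymyxin B was added at a level permeabilizing Salmonella outer membranes while sparing inner membranes. DMSO wells, both with and without polymyxin B, established maximum growth. Plate-to-plate variation meant each plate was ranked on its own, and the lowest-OD600 compounds were selected as hits.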
# Test system: Salmonella enterica serovar Typhimurium SL1344
# Experiment: bacterial growth OD600 after 18 h with compound and polymyxin B; higher = more bacterial growth (less inhibition)
# Details: 50 µM, Mueller-Hinton broth
Structure (SMILES),bacterial growth OD600 (polymyxin B 0.75 µg/mL),bacterial growth OD600 (polymyxin B 1 µg/mL)
Cn1nccc1C(=O)N1CCCC(CCc2ccccc2)C1 (configuration not stated),0.772,
COc1cc([C@@H]2C[C@H]3CN(C4CCCC4)C(=O)[C@]34CCCN24)ccc1F,,1.11
COc1cc(CN2CCNC(=O)C2CC(=O)N2CCCCCC2)cc(OC)c1 (configuration not stated),0.793,
CCCn1ncc(CN2CCCC(C(=O)c3cc(C)c(OC)c(C)c3)C2)c1C (configuration not stated),,0.897
CCC(C)C(=O)NCC1Cc2cc(-c3cc(OC)ccc3OC)cc(Cl)c2O1 (configuration not stated),0.595,
COCCN1CCCC2(CCN(C(=O)c3cccc(Cl)c3)C2)C1=O (configuration not stated),,0.867
Cc1cc(-c2nnc(CCC(=O)NCc3cccc(C(F)(F)F)c3)o2)no1,,0.904
CN(Cc1ccc2nccnc2c1)C(=O)CC1(c2cccc(F)c2)CC(=O)N(C2CCCC2)C1=O (configuration not stated),0.181,
O=C(CCC1CCN(C(=O)C2CCCO2)CC1)N1CCC(Cc2ccccc2)CC1 (configuration not stated),,1.01
c1ccc(Cc2noc(-c3ccc(NCCc4cnccn4)nc3)n2)cc1,0.691,
COc1ccc(C(=O)NC2CC2)c(OC2CCN(Cc3cccc(C)n3)CC2)c1,,1.23
CCOC(=O)C1CCCN(c2nncc(-c3cccc4ccccc34)n2)C1 (configuration not stated),0.258,
CSc1ccc(CC2(CCC(=O)NC(C)c3cnn(-c4ccccc4)c3)CCC(=O)N2)cc1 (configuration not stated),0.78,
C=C(C)CNC(=O)C1CCCN(C2CCN(C(=O)C3CC3)CC2)C1 (configuration not stated),0.831,
COc1ccc(CN2CCOc3ccc(C(O)CCc4ccccc4)cc3C2)cc1OC (configuration not stated),0.002,
COCC(=O)Nc1cc(C(=O)N2CCN(c3ccccn3)CC2)c2c(c1)nc(C1CCC1)n2C,0.772,

Structure (SMILES),bacterial growth OD600 (polymyxin B 0.75 µg/mL),bacterial growth OD600 (polymyxin B 1 µg/mL)
COc1ccc(CNC2CCCCCC2)c(OCC(O)CN2CCN(C)CC2)c1 (configuration not stated),,1.15
Cc1cccc(C)c1OCc1cc(C(=O)N2CCC(CCN3CCCC3=O)CC2)no1,0.653,
Cc1ccccc1-n1ncc(C(C)NC(=O)c2cc(=O)n(C)c(=O)n2C)c1C (configuration not stated),,0.958
COc1ccccc1OCc1cc(C(=O)N(CCO)Cc2ccccc2)no1,,0.855
CCOC(=O)C1(Cc2ccc(OC)cc2)CCN(S(=O)(=O)c2ccsc2)CC1,0.855,
Cc1ccccc1CCC1CCCN(C(=O)c2ccco2)C1 (configuration not stated),0.319,
COc1cccc(C(=O)NCC2Cc3cc(F)cc(-c4ccccn4)c3O2)c1 (configuration not stated),0.884,
CO[C@H]1[C@H](NC(=O)c2ccco2)c2ccccc2C12CCN(Cc1cc(C)cc(C)c1)CC2,0.698,
c1ccc2c(c1)CC(N1CCCC(NC3CSCCSC3)C1)C2 (configuration not stated),,1.14
COc1ccc(C(CC(=O)N2CCOCC2)c2ccccc2)cc1 (configuration not stated),,0.748
CN(C)C(=O)CCC(=O)N1CCc2onc(-c3ccccc3F)c2C1,0.969,
Cc1ccc2c(c1)CN(C(=O)c1ccc(F)c(F)c1)CC(C)O2 (configuration not stated),0.692,
COc1cccc([C@@H](C)NC(=O)CCc2nnc(Cc3cc(OC)ccc3OC)o2)c1,,1.08
CC(C)(C)C(=O)Nc1ccnn1C1CCN(Cc2c[nH]nc2-c2ccccc2)CC1,,0.991
COC(c1ccc2c(c1)CN(C(=O)c1cscn1)CCO2)C1CCCCC1 (configuration not stated),0.697,
Cc1ccc(CN2CCC(CN(C)Cc3cccc(F)c3)CC2)o1,,0.812

# An excerpt from above in order of molecular weight, rising.
Structure (SMILES),bacterial growth OD600 (polymyxin B 0.75 µg/mL),bacterial growth OD600 (polymyxin B 1 µg/mL)
Cc1ccccc1CCC1CCCN(C(=O)c2ccco2)C1 (configuration not stated),0.319,
COc1cccc(C(=O)NCC2Cc3cc(F)cc(-c4ccccn4)c3O2)c1 (configuration not stated),0.884,
COC(c1ccc2c(c1)CN(C(=O)c1cscn1)CCO2)C1CCCCC1 (configuration not stated),0.697,
